Record: PubChem BioAssay AID1259307 (Sanger Institute, 2017)
This is an unselected part of 794 reagents. In the full data, 15 (1.9%) got an active call. 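Calls reflect lethality without any drug; synergy scores did not enter the calls.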 No viability above 1 is reported: the scale is capped. Further read-outs or replicates are left out here. The record does not give: the amount of reagent, the time to read-out.

Assay: 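siRNA kinome screen seeking kinases whose loss harms SW620 cells alone or with drugs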 (primary screen)
Cell system: SW620 colorectal cancer cells
Reagent: siRNA pool against human genes
Conditions: anchor drugs BYL719 at 1 µM, cetuximab at 5 µg/ml or trametinib at 10 nM, each beside a DMSO vehicle arm
Measurement: 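Per-well viability versus non-targeting control pool, replicate-averaged, robust z-score from controls; synergy scores for BYL719 1 µM, cetuximab 5 µg/ml, trametinib 10 nM against DMSO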
Direction: viability robust z-score, no drug and viability vs control, no drug: higher = more viable cells
Rule for the call: 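Essential when the viability robust z-score without drug is under -3; synergy scores are ignored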
Meaning of the calls: active = essential (lethal alone); inactive = no change alone

After knock-down of TRIB2 (tribbles pseudokinase 2) the results were viability robust z-score, no drug -0.513; viability vs control, no drug 0.885; inactive. CIT (citron rho-interacting serine/threonine kinase) showed viability robust z-score, no drug -1.54; viability vs control, no drug 0.79; inactive. Silencing of SOX9 (SRY-box transcription factor 9) resulted in: viability robust z-score, no drug 0.678; viability vs control, no drug 0.995; inactive. Knock-down of AMER1 (APC membrane recruitment protein 1) came out at: viability robust z-score, no drug 0.736; viability vs control, no drug 1; inactive. After knock-down of MLKL (mixed lineage kinase domain like pseudokinase), the record shows viability robust z-score, no drug 0.0975; viability vs control, no drug 0.941; inactive. Against PPP2R1A (protein phosphatase 2 scaffold subunit Aalpha), the entry reads viability robust z-score, no drug 0.736; viability vs control, no drug 1; inactive.

With knock-down of MAPK9 (mitogen-activated protein kinase 9), the screen gave viability robust z-score, no drug 0.221; viability vs control, no drug 0.953; inactive. GAK (cyclin G associated kinase) gave viability robust z-score, no drug 0.736; viability vs control, no drug 1; inactive. With knock-down of FN3K (fructosamine 3 kinase), the screen gave viability robust z-score, no drug 0.131; viability vs control, no drug 0.944; inactive. For PRKAG3 (protein kinase AMP-activated non-catalytic subunit gamma 3) the deposit lists viability robust z-score, no drug -3.18; viability vs control, no drug 0.638; active. FGFR1 (fibroblast growth factor receptor 1) gave viability robust z-score, no drug -0.0447; viability vs control, no drug 0.928; inactive. Depletion of PI4K2B (phosphatidylinositol 4-kinase type 2 beta) resulted in: viability robust z-score, no drug 0.629; viability vs control, no drug 0.99; inactive.

FOXP1 (forkhead box P1) gave viability robust z-score, no drug -2.78; viability vs control, no drug 0.675; inactive. With knock-down of SIK1 (salt inducible kinase 1), the screen gave viability robust z-score, no drug -0.147; viability vs control, no drug 0.919; inactive. Knock-down of CUL1 (cullin 1) came out at: viability robust z-score, no drug -0.514; viability vs control, no drug 0.885; inactive. Silencing of MYLK (myosin light chain kinase) resulted in: viability robust z-score, no drug -0.078; viability vs control, no drug 0.925; inactive. PRKACB (protein kinase cAMP-activated catalytic subunit beta) gave viability robust z-score, no drug 0.423; viability vs control, no drug 0.971; inactive. For FER (FER tyrosine kinase), the values are viability robust z-score, no drug 0.736; viability vs control, no drug 1; inactive.

Silencing of BCR (BCR activator of RhoGEF and GTPase) gave: viability robust z-score, no drug 0.736; viability vs control, no drug 1; inactive. Silencing of RIPK2 (receptor interacting serine/threonine kinase 2) resulted in: viability robust z-score, no drug -0.324; viability vs control, no drug 0.902; inactive. Knock-down of PRKAR2B gave: viability robust z-score, no drug 0.373; viability vs control, no drug 0.966; inactive. With knock-down of GUCY2EP (guanylate cyclase 2E, pseudogene), the record shows viability robust z-score, no drug -2.43; viability vs control, no drug 0.708; inactive. For TPD52L3 (TPD52 like 3), the values are viability robust z-score, no drug 0.736; viability vs control, no drug 1; inactive. For FN3KRP (fructosamine 3 kinase related protein), the entry reads viability robust z-score, no drug -1.38; viability vs control, no drug 0.805; inactive.

For EPHA2 (EPH receptor A2), the entry reads viability robust z-score, no drug 0.519; viability vs control, no drug 0.98; inactive. For ALPK1 (alpha kinase 1), the values are viability robust z-score, no drug -0.429; viability vs control, no drug 0.892; inactive. MAP3K9 (mitogen-activated protein kinase kinase kinase 9) gave viability robust z-score, no drug -0.0728; viability vs control, no drug 0.925; inactive. Silencing of STK16 (serine/threonine kinase 16) gave: viability robust z-score, no drug -0.612; viability vs control, no drug 0.876; inactive.

A stretch taken from the entries so far:
PPP2R1A (protein phosphatase 2 scaffold subunit Aalpha) → viability robust z-score, no drug: 0.736; viability vs control, no drug: 1; activity call: inactive
MAPK9 (mitogen-activated protein kinase 9) → viability robust z-score, no drug: 0.221; viability vs control, no drug: 0.953; activity call: inactive
GAK (cyclin G associated kinase) → viability robust z-score, no drug: 0.736; viability vs control, no drug: 1; activity call: inactive
FN3K (fructosamine 3 kinase) → viability robust z-score, no drug: 0.131; viability vs control, no drug: 0.944; activity call: inactive
